For at least one compound, name, drawing or mass did not settle the structure.
Tested on: dopaminergic neurons (TH+) of rat mesencephalon cultures
Assay: neurite length per TH+ dopaminergic neuron in mesencephalon cultures
Assay type: cell-based
Set-up: key: a favorable response, synonymous with an increase in dopamine reuptake per TH^+ neuron (Table 1) or with an increase in neurite length per TH^+ neuron (Table 2), in the presence of the treatments of interest, is denoted by a “+”, “++” or “+++” sign, depending on the size of this response; a favorable response ... is denoted by a “+”, “++” or “+++” sign, depending on the size of this response; a favorable response ... is denoted by a “+”, “++” or “+++” sign, depending on the size of this response; an absence of response is represented by a “—” sign
Settings: cultures of mesencephalon at D14; treatment D7-D14 (7 days); memantine 10 μM; gas mixture 20% O2 + 5% CO2 + 75% gas tested (N2 or Xe)
Procedure: Cultures are prepared from mesencephalon of rat embryos, taking from female Wistar rats, on day 15.5 of gestation. The process for obtaining the mesencephalon cultures comprises the obtaining of a homogeneous cell suspension by mechanical dissociation, that is to say non-enzymatic dissociation, of the embryonic tissue, using Leibovitz's L15 medium (Sigma Aldrich). Aliquots of this suspension are added to 48-well Nunc plates, which have been precoated with a thin layer of polyethyleneimine (1 mg/ml, borate buffer, pH 8.3) so as to allow the adhesion of neuronal cells (Toulorge et al., Faseb J, 2011). The seeding density is between approximately 80 000 and 100 000 cells/cm^2. The mesencephalon cultures are maintained in Minimum Essential culture Medium (MEM), containing 1 g/l of glucose, 2 mM of L-glutamine, 1 mM of sodium pyruvate, non-essential amino acids and a penicillin/streptomycin cocktail. For the first week of culture, this medium is supplemented with 10% of fetal calf serum and 10% of horse serum. […] Up until the moment when the effects of the gases of interest are evaluated, the cultures are placed in a conventional enclosure thermostated at 37° C., in which the CO2 is maintained at 5% by volume and wherein the atmosphere is saturated with water. […] This parameter is evaluated with the same HCS Studio software.

[Xe] [Xenon, xenon]
neurites/TH^+ neuron (neurite length/dopaminergic neuron): +

— patent publication US20170246204A1, “MEDICAMENT FOR TREATING A DISEASE RELATING TO A DYSFUNCTION OF THE DOPAMINERGIC SYNAPTIC TRANSMISSION” (L'Air Liquide, Société Anonyme pour l'Etude et …, priority 2014, published 2017)
